Experimental data reported in the supplement of paper PMC3334620.
In all, about 33,000 sequences were measured (“E-score (-0.5 to 0.5)”: median about -8e-05, highest 2% from about 0.23 on). Some of the results follow.

Target: T1, Nrg2 (UniProt P38082)
T1 sequence: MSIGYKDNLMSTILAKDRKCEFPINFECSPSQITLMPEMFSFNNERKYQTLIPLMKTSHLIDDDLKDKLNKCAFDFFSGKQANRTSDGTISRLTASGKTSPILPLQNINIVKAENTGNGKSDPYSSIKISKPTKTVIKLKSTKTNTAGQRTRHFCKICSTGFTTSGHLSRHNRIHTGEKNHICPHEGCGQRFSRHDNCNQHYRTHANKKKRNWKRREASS
Test: PBM E-score (8-mer binding enrichment) (E-score (-0.5 to 0.5)); higher = stronger / more preferred TF binding
Settings: protein concentration: 100 nM; construct: GST-full length
Summary of the method: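 Full-length yeast transcription factors or their DNA-binding domains, GST-tagged and expressed with PURExpress, were applied at about 100-200 nM to universal all-10-mer Agilent arrays. These arrays had been made double-stranded by primer extension on fresh or once-stripped slides. Detection used fluorescent anti-GST, normalisation used masliner, and E-scores for ungapped eight-base words pooled with reverse complements came from the Universal PBM Analysis Suite.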

Row | Sequence | PBM E-score
1 | AATTGTAG | 0.0513
2 | CGACGCCA | -0.0323
3 | AGTGTCCA | 0.0617
4 | GCACTTAA | -0.00289
5 | GCCGAATA | -0.0388
6 | AAACGGAT | 0.205
7 | ACCTGACT | 0.148
8 | CTTTCAAA | 0.193
9 | CCGTCTAC | -0.0453
10 | ATTGCTCG | -0.0158
11 | CCGAGGCA | -0.107
12 | CACGCCTC | -0.127
13 | AGGACCCA | -0.179
14 | GGCTACGA | -0.0831
15 | ACGCAGTC | -0.242
16 | AATTGGAC | 0.193
17 | CCATGCGC | 0.125
18 | AATGTACA | 0.105
19 | CCTAGTAA | -0.0585
20 | CATCATCC | 0.0396
21 | GGTGCACC | 0.0727
22 | CAGAATCA | 0.209
23 | AACTATAG | -0.00956
24 | CTCGACCA | -0.16
25 | CTTTCTGC | 0.0856

Quoted at random: 2 entries already listed, in no set order.
Row | Sequence | PBM E-score
23 | AACTATAG | -0.00956
9 | CCGTCTAC | -0.0453

Further results.

Row | Sequence | PBM E-score
26 | GTTCTTAA | 0.0272
27 | CATCGGTA | -0.208
28 | CTTAATCC | 0.0573
29 | GGGGTGAA | -0.123
30 | GCAGTCCC | -0.111
31 | ACGTACAT | 0.0502
32 | ATTGGTGG | 0.0468
33 | GTCATAGA | -0.0155
34 | CCGTGAAG | -0.127
35 | CCGATGGA | -0.145
36 | GAAGACAC | 0.0793
37 | CGTTTAAA | -0.0119
38 | AATGCACG | 0.00138
39 | AGTTTAGC | 0.01
40 | CAGTTTAC | -0.0401
41 | GACCTCGC | -0.0199
42 | ATAACCAA | 0.168
43 | CAAAATCC | 0.1
44 | AAGTCACG | -0.0613
45 | ATAATCCC | 0.24
46 | AGCCACAA | -0.0358
47 | GGATGTGA | 0.0138
48 | GCAACCGA | -0.0106
49 | AAAAATCT | 0.0638
50 | TCTAAGCA | 0.0127

Row | Sequence | PBM E-score
51 | AATAGTGG | -0.0486
52 | GGAATTCC | -0.148
53 | GAACCCGC | -0.0987
54 | AACGAGGA | 0.169
55 | CGGTCGGC | -0.147
56 | AGAGTTAA | -0.0711
57 | AACCCGTG | -0.242
58 | AACTTGCC | 0.0117
59 | CGAAGTTC | 0.0952
60 | GAACTCGA | 0.0868
61 | AGAAAAGA | -0.17
62 | CACCAATG | 0.0207
63 | AGAGTCGG | -0.0437
64 | TCTACGCA | 0.0696
65 | GGTCTTTA | 0.0213
66 | ATGCGAAC | -0.00758
67 | ATCGTTAG | -0.069
68 | AATCGAGA | 0.114
69 | CATTTACG | -0.131
70 | CCGCGCTC | 0.0292
71 | AACCTGCT | -0.00382
72 | AGAATTAG | 0.00217
73 | GTTTGTCA | 0.0556
74 | ATGCCTAC | -0.166
75 | CCTGACTA | 0.172

Quoted from the listing:
Under PBM E-score, CAGTTTAC shows -0.0401
Under PBM E-score, TCTAAGCA shows 0.0127
Under PBM E-score, GGGGTGAA shows -0.123
Under PBM E-score, GCACTTAA shows -0.00289
Under PBM E-score, CTTTCTGC shows 0.0856
Under PBM E-score, GCAACCGA shows -0.0106
Under PBM E-score, ATTGCTCG shows -0.0158

Later entries:

Row | Sequence | PBM E-score
76 | TGAAGCAA | -0.0714
77 | ATAATCTC | 0.212
78 | ATTGGTAG | 0.0439
79 | ATCCCGAC | 0.0589
80 | AAAAGCAA | 0.019
81 | GGTAAGTA | -0.146
82 | GCCGTAGA | 0.083
83 | ACCGATAC | -0.00076
84 | ACAAGACA | 0.146
85 | AGGGGCAG | -0.00851
86 | AATAGCAA | 0.194
87 | ATTTCGAG | 0.14
88 | ATACGGAG | -0.1
89 | CGTAGTAG | -0.0402
90 | GCTTCTTA | -0.0781
91 | CGTAGCGC | -0.0705
92 | GAATCGCA | 0.0121
93 | ATGCGTTA | -0.0667
94 | GGCGTGTA | -0.0241
95 | ATCGTAAA | -0.0607
96 | GCAACGCA | -0.264
97 | CTGGGTGA | -0.0666
98 | CGGTGTCC | -0.0812
99 | AAGATAAC | 0.0597
100 | TGCCCTAA | -0.156

Row | Sequence | PBM E-score
101 | ACTTTTTA | 0.0398
102 | GCAGCGCC | -0.0682
103 | ACGTAGCT | -0.0827
104 | GCATAAAC | -0.0002
105 | AACATAGT | 0.065
106 | ATAGCTCA | 0.00447
107 | ATCCTGTC | 0.0194
108 | CGGGCCAA | -0.263
109 | CACTAAGA | 0.127
110 | TCAGACGA | 0.119
111 | AAAAAGAC | 0.129
112 | AGCTGATA | 0.00949
113 | AAGAGGAC | -0.0921
114 | CACATCAC | 0.00889
115 | CTAAGTAC | -0.0485
116 | AGAGCAAT | -0.0853
117 | AAGAGCGG | -0.0332
118 | TCACCCGA | 0.0644
119 | CACCTTTC | 0.0109
120 | ATATTTAA | 0.14
121 | GACATTGC | -0.0455
122 | CGGTACTC | -0.185
123 | ATGGTCCC | 0.0828
124 | TACCATCA | -0.169
125 | ATAATAAA | 0.224

Row | Sequence | PBM E-score
126 | CGCTTTGA | 0.0191
127 | AGGGGACC | 0.225
128 | ACTAGTCC | 0.1
129 | GCCTACTA | 0.15
130 | ATTAGTTG | 0.256
131 | CTAATACC | -0.047
132 | AACTCGCG | 0.107
133 | GGGTAAGA | -0.276
134 | GCGCAAGC | -0.0668
135 | ACACCAGC | -0.121
136 | ACGCTTAA | -0.0464
137 | TAGACTCA | -0.169
138 | ACTCGGTC | 0.0193
139 | CACAGCAA | 0.162
140 | ACTGCTAT | 0.0878
141 | GTCCCCGA | 0.104
142 | CGACTCAA | 0.062
143 | CGACGTAA | -0.0403
144 | ACCGGTAT | 0.0481
145 | AATGGCGC | 0.0453
146 | AAGGTGGA | -0.0569
147 | CGGTAAAC | -0.0982
148 | ATGCCAAA | -0.0611
149 | CGATTACA | -0.0482
150 | AGACATCG | -0.103

Row | Sequence | PBM E-score
151 | ATCCTGAA | 0.125
152 | ACTCACCT | -0.109
153 | AAAGAGCA | 0.0706
154 | ACAGAGTC | 0.0468
155 | GTTACCAA | 0.109
156 | CGGGACAG | 0.0943
157 | AGCGCCAA | -0.18
158 | GAGTTTCC | -0.216
159 | GTTGCTCA | 0.1
160 | CGGACAGC | 0.06
161 | CCGAGAGA | 0.0866
162 | AGTTATAT | 0.192
163 | AACTCATA | 0.0735
164 | ACGCGCGA | 0.209
165 | GTACGAAA | 0.0842
166 | GAACTATA | 0.147
167 | ACTCTAGG | -0.0983
168 | AGGGCCTG | -0.00651
169 | ATTGCCTG | 0.0693
170 | GAACATTA | 0.118
171 | CACGGATG | -0.149
172 | AACTGATG | 0.0302
